Results deposited as PubChem BioAssay AID504764 (Drosophila RNAi Screening Center, 2011).
In all, the deposit lists about 22,000 reagents; shown is an unselected part of those with a known target gene and a result. In the full data, 403 (1.9%) got an active call. 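Unnormalised raw counts per well; ratio z-scores behind the hit calls and whether each hit raises or lowers signal are not deposited.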 Reagents against one gene are numbered here. A plus sign joins genes that one reagent is predicted to hit. Reagent sequences are not shown. The record does not give: the amount of reagent.

Test: 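Genes whose knock-down alters Notch-dependent transcription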 (primary screen)
System: Drosophila Kc167 cells
Reagents: long dsRNA against Drosophila genes
Time to read-out: about 5 days (4 days dsRNA, then 24 h after transfection)
Conditions: transfection of constitutively active membrane-tethered Notch lacking the extracellular domain, read 24 h later
Read-out: 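Firefly luciferase from an E(spl)m3 reporter with active Notch, plus control-promoter and uninduced reporter wells for normalisation; unnormalised counts, duplicate wells a and b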
Reading the numbers: induced reporter light, run 1, well a and induced reporter light, run 1, well b: higher = more light from the Notch target reporter with active Notch; control promoter light, run 1, well a and control promoter light, run 1, well b: higher = more light from the viral control promoter (cell number, transfection, viability); uninduced reporter light, run 1, well a: higher = more light from the Notch target reporter without active Notch
Hit rule: 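Hit if the duplicate-averaged log2 ratio of induced to control-promoter light gives a plate-wise z beyond ±2, or induced to uninduced beyond ±1.8; weak-control or discordant-duplicate wells dropped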
Meaning of the calls: active = modifier hit (raised or lowered Notch signal); inactive = not a hit

The opening 2 entries as a preview:
| gene | dsRNA no. | induced reporter light, run 1, well a | induced reporter light, run 1, well b | control promoter light, run 1, well a | control promoter light, run 1, well b | uninduced reporter light, run 1, well a | activity call |
| --- | --- | --- | --- | --- | --- | --- | --- |
| CG32132 (retired record) | 1 | – | – | – | – | – | inactive |
| Jabba | 1 | 1.09e5 | 1.05e5 | 1.96e5 | 1.88e5 | 9190 | inactive |

Main list, repeating the preview:
| gene | dsRNA no. | induced reporter light, run 1, well a | induced reporter light, run 1, well b | control promoter light, run 1, well a | control promoter light, run 1, well b | uninduced reporter light, run 1, well a | activity call |
| --- | --- | --- | --- | --- | --- | --- | --- |
| CG32132 (retired record) | 1 | – | – | – | – | – | inactive |
| Jabba | 1 | 1.09e5 | 1.05e5 | 1.96e5 | 1.88e5 | 9190 | inactive |
| Arts + Apl | 1 | 1.93e5 | 1.91e5 | 2.28e5 | 1.84e5 | 10590 | inactive |
| Pph13 (PvuII-PstI homology 13) | 1 | 53335 | 51395 | 31865 | 33760 | 11278 | inactive |
| sotv + CG10731 | 1 | 1.13e5 | 88000 | 1.13e5 | 1.05e5 | 8950 | inactive |
| sotv + CG10731 | 2 | 1.75e5 | 1.28e5 | 1.17e5 | 1.30e5 | 9455 | inactive |
| ko (knockout) | 1 | 1.16e5 | 83620 | 1.07e5 | 93565 | 10505 | inactive |
| l(3)72Dp (lethal (3) 72Dp) | 1 | 1.72e5 | 1.80e5 | 2.12e5 | 2.15e5 | 10055 | inactive |
| Osi10b (Osiris 10b) | 1 | 1.04e5 | 1.03e5 | 78740 | 71070 | 6685 | inactive |
| Or83c (Odorant receptor 83c) | 1 | 1.09e5 | 1.16e5 | 1.47e5 | 1.06e5 | 15470 | inactive |
| CG7509 | 1 | 1.74e5 | 1.09e5 | 91020 | 40760 | 13442 | inactive |
| CG34106 | 1 | 1.02e5 | 69070 | 71830 | 74145 | 6660 | inactive |
| CG13678 | 1 | 1.69e5 | 1.36e5 | 2.32e5 | 2.15e5 | 13115 | inactive |
| Klp59D (Kinesin-like protein at 59D) | 1 | 2.08e5 | 1.65e5 | 1.59e5 | 1.23e5 | 11660 | inactive |
| Obp46a (Odorant-binding protein 46a) | 1 | 1.69e5 | 1.43e5 | 1.89e5 | 1.96e5 | 14740 | inactive |
| CG14400 | 1 | 93340 | 64885 | 54110 | 71010 | 4205 | inactive |
| mRpL40 (mitochondrial ribosomal protein L40) | 1 | 87985 | 93070 | 74700 | 60150 | 6525 | inactive |
| out (outsiders) | 1 | 1.26e5 | 1.18e5 | 86985 | 62650 | 8565 | inactive |
| Ssl1 (Suppressor of stem-loop mutation) | 1 | 1.40e5 | 1.35e5 | 1.14e5 | 1.20e5 | 10300 | inactive |
| CG11263 | 1 | 1.43e5 | 1.08e5 | 2.16e5 | 1.30e5 | 6895 | inactive |
| CG31788 | 1 | 73375 | 83610 | 81040 | 59660 | 6700 | inactive |
| hyx (hyrax) | 1 | 44420 | 45635 | 40885 | 31405 | 4345 | inactive |
| spz3 (spatzle 3) | 1 | 1.35e5 | 1.60e5 | 1.06e5 | 1.47e5 | 21270 | inactive |
| spz3 (spatzle 3) | 2 | 1.05e5 | 1.28e5 | 58880 | 62810 | 16950 | inactive |
| mRpS5 (mitochondrial ribosomal protein S5) | 1 | – | – | – | – | – | inactive |
| Nos (Nitric oxide synthase) | 1 | 2.72e5 | 2.25e5 | 1.98e5 | 2.13e5 | 16465 | inactive |
| CG9067 | 1 | 1.26e5 | 1.37e5 | 1.47e5 | 1.22e5 | 11225 | inactive |
| CG4660 | 1 | 1.71e5 | 1.70e5 | 2.82e5 | 2.57e5 | 14150 | inactive |
| spn-F | 1 | 1.42e5 | 1.27e5 | 2.15e5 | 2.06e5 | 7992 | inactive |
| TotB (Turandot B) | 1 | 1.53e5 | 1.48e5 | 1.99e5 | 1.64e5 | 11505 | inactive |
| beta3GalTII (beta-1,3-Galactosyltransferase II) | 1 | 1.51e5 | 1.65e5 | 2.01e5 | 1.70e5 | 12920 | inactive |
| hpRNA:CR18854 (hairpin RNA:CR18854) | 1 | 1.05e5 | 1.19e5 | 83700 | 1.07e5 | 17070 | inactive |
| CG4374 | 1 | 1.86e5 | 2.04e5 | 2.11e5 | 2.25e5 | 13750 | inactive |
| Lrr47 (Leucine-rich repeat 47) | 1 | 2.38e5 | 2.74e5 | 2.43e5 | 3.02e5 | 19105 | inactive |
